Laboratory results published in the supplement of paper PMC4604168 (melanoma cell lines).
Some of the results follow. Many values rest on one well or one pass, so single values are uncertain.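 Imaging used 1,536-well plates; nuclei positive for cleaved PARP by antibody were divided by total DNA-stained nuclei to yield the apoptosis fraction. Doses for screening kept most cells viable, and cell lines differ markedly in resting and induced cleaved-PARP levels.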

Legend:
Assay in all cases: cleaved PARP positive nuclei fraction relative to DMSO control; melanoma cells; higher = more apoptosis
Conditions in all cases: library dose: low library concentration; 72 h
501Mel = tested on: 501Mel
A101D = tested on: A101D
A2058 = tested on: A2058
A375 = tested on: A375
C32 = tested on: C32
CBRC013 = tested on: CBRC013 (line from a melanoma biopsy)
CBRC014 = tested on: CBRC014 (line from a melanoma biopsy)
CBRC016 = tested on: CBRC016 (line from a melanoma biopsy)
CBRC017 = tested on: CBRC017 (line from a melanoma biopsy)
CBRC034 = tested on: CBRC034 (line from a melanoma biopsy)
COLO792 = tested on: COLO792
COLO800 = tested on: COLO800
COLO829 = tested on: COLO829
G361 = tested on: G361
IPC-298 = tested on: IPC-298
IST-MEL1 = tested on: IST-MEL1
LB2518-MEL = tested on: LB2518-MEL
LOXIMVI = tested on: LOXIMVI

SMILES | cleaved PARP positive nuclei fraction (501Mel) [%] | cleaved PARP positive nuclei fraction (A101D) [%] | cleaved PARP positive nuclei fraction (A2058) [%] | cleaved PARP positive nuclei fraction (A375) [%] | cleaved PARP positive nuclei fraction (C32) [%] | cleaved PARP positive nuclei fraction (CBRC013) [%] | cleaved PARP positive nuclei fraction (CBRC014) [%] | cleaved PARP positive nuclei fraction (CBRC016) [%] | cleaved PARP positive nuclei fraction (CBRC017) [%] | cleaved PARP positive nuclei fraction (CBRC034) [%] | cleaved PARP positive nuclei fraction (COLO792) [%] | cleaved PARP positive nuclei fraction (COLO800) [%] | cleaved PARP positive nuclei fraction (COLO829) [%] | cleaved PARP positive nuclei fraction (G361) [%] | cleaved PARP positive nuclei fraction (IPC-298) [%] | cleaved PARP positive nuclei fraction (IST-MEL1) [%] | cleaved PARP positive nuclei fraction (LB2518-MEL) [%] | cleaved PARP positive nuclei fraction (LOXIMVI) [%]
O=C(O)c1ccc(-c2c[nH]c3ncc(-c4ccccc4)cc23)cc1C1CCCC1 + c1cc(-c2cnn3cc(-c4ccc(OCCN5CCCCC5)cc4)cnc23)ccn1 [Dorsomorphin] (first compound 0.16 µM, partner dose 0.4 µM) | 44.2 | 52.9 | 101 | 104 | 79.5 | 66.9 | 97.3 | 72.9 | 93.9 | 67.2 | 127 | 77.1 | 142 | 100 | 167 | 97.8 | 77.9 | 172
Cc1cc([N+](=O)[O-])ccc1NS(=O)(=O)c1cc(Cl)ccc1Cl + O=c1cc(-c2cccc3c2Sc2ccccc2S3)oc(N2CCOCC2)c1 [KU55933] (first compound 1 µM, partner dose 1 µM) | 115 | 136 | 24 | 179 | 138 | 71.5 | 394 | 2730 | 700 | 384 | 70.9 | 30.5 | 92.6 | 87.7 | 97.1 | 110 | 76.6 | 93.8
CN(NC(=O)CC(=O)NN(C)C(=S)c1ccccc1)C(=S)c1ccccc1 + COc1ccc(-c2ccc3c(N4CCOCC4)nc(N4C[C@@H](C)O[C@@H](C)C4)nc3n2)cc1CO [KU0063794] (first compound 0.006 µM, partner dose 0.02 µM) | 169 | 290 | 116 | 2050 | 86.7 | 68.6 | 429 | 252 | 71.3 | 95.9 | 176 | 307 | 293 | 138 | 89.5 | 48.9 | 96.9 | 27.4
COC(=O)c1sccc1S(=O)(=O)Nc1ccc(Nc2ccccc2)cc1OC + Cc1cc([N+](=O)[O-])ccc1NS(=O)(=O)c1cc(Cl)ccc1Cl [FH535] (first compound 1 µM, partner dose 1 µM) | 70.5 | 119 | 47.4 | 10.1 | 97.8 | 168 | 161 | 689 | 453 | 142 | 87.6 | 133 | 96.3 | 51.2 | 173 | 68.1 | 69 | 34.4
Cn1cc(/C=C2\C(=O)Nc3cccnc32)c2ccccc21 + CCCCCCCCCCCC1=C(O)C(=O)C=C(O)C1=O [Embelin] (first compound 0.4 µM, partner dose 1.2 µM) | 70.4 | 111 | 76.9 | 126 | 126 | 415 | 108 | 31.5 | 94.9 | 104 | 41.5 | 74 | 91.7 | 225 | 93 | 293 | 74.7 | 73
CN(C)S(=O)(=O)c1ccc2c(c1)/C(=C/c1cc3c([nH]1)CCCC3)C(=O)N2 + Cc1cc([N+](=O)[O-])ccc1NS(=O)(=O)c1cc(Cl)ccc1Cl [FH535] (first compound 0.4 µM, partner dose 1 µM) | 79.6 | 105 | 56.8 | 24.4 | 102 | 64.2 | 154 | 2040 | 234 | 627 | 81.7 | 94.9 | 70.9 | 124 | 42.4 | 215 | 282 | 61.2
COc1cc2c(Oc3ccc4[nH]c(C)cc4c3F)ncnc2cc1OCCCN1CCCC1 [cediranib] + COC(=O)c1sccc1S(=O)(=O)Nc1ccc(Nc2ccccc2)cc1OC [GSK0660] (first compound 0.4 µM, partner dose 1 µM) | 73.3 | 61.3 | 29 | 47.5 | 139 | 136 | 81.2 | 52.9 | 32.5 | 183 | 97.9 | 163 | 91.8 | 58.1 | 82.4 | 58.8 | 85.7 | 80.6
COc1cc2ncnc(Nc3ccc(Oc4ccccc4)cc3)c2cc1OC + Oc1nc(-c2ccc(C(F)(F)F)cc2)nc2c1CSCC2 [XAV939] (first compound 2 µM, partner dose 2 µM) | 73.6 | 64.5 | 68.2 | 28.7 | 85.1 | 61.6 | 87.4 | 54.3 | 90.6 | 95.5 | 205 | 113 | 35.9 | 56.2 | 118 | 54 | 138 | 191
O=C1NC(=O)/C(=C/c2ccc(-c3ccc(F)cc3O)o2)S1 + CC(C)CCN1c2nc(Nc3cc(F)c(O)c(F)c3)ncc2N(C)C(=O)C1C [BID1870] (first compound 1 µM, partner dose 0.2 µM) | 97.7 | 180 | 65.6 | 10.3 | 8.41 | 134 | 86.5 | 48 | 54.7 | 67.6 | 39.6 | 103 | 86.8 | 130 | 79.3 | 55.9 | 79.8 | 27.9
COc1ccc2c(c1)CCC1C2CCC2(C)C(NCCCCCCN3C(=O)C=CC3=O)CCC12 (configuration not stated) + CCCCCCCCCCCC1=C(O)C(=O)C=C(O)C1=O [Embelin] (first compound 0.4 µM, partner dose 1.2 µM) | 69.8 | 86.6 | 86.2 | 63.3 | 114 | 196 | 95.1 | 55.2 | 53 | 120 | 75.2 | 65.6 | 63 | 312 | 53.3 | 284 | 82.6 | 65.7
COc1ccc2c(c1)CCC1C2CCC2(C)C(NCCCCCCN3C(=O)C=CC3=O)CCC12 (configuration not stated) + Cc1cc([N+](=O)[O-])ccc1NS(=O)(=O)c1cc(Cl)ccc1Cl [FH535] (first compound 0.4 µM, partner dose 1 µM) | 59.1 | 162 | 146 | 342 | 110 | 80.4 | 227 | 1830 | 238 | 270 | 162 | 52.8 | 135 | 203 | 86.7 | 89.4 | 79 | 166
O=S(=O)(c1ccccc1)N(CC(F)(F)F)c1ccc(C(O)(C(F)(F)F)C(F)(F)F)cc1 + CCCCCCCCCCCC1=C(O)C(=O)C=C(O)C1=O [Embelin] (first compound 1.4 µM, partner dose 1.2 µM) | 35 | 86.3 | 130 | 44.9 | 141 | 49.2 | 97.3 | 20 | 78.1 | 78.5 | 106 | 131 | 99.3 | 145 | 72 | 188 | 81.2 | 95.1
O=S(=O)(c1ccccc1)N(CC(F)(F)F)c1ccc(C(O)(C(F)(F)F)C(F)(F)F)cc1 + O=C1NC(=O)/C(=C/c2ccc(-c3ccc(F)cc3O)o2)S1 [AS252424] (first compound 1.4 µM, partner dose 1 µM) | 96 | 78.4 | 42.3 | 209 | 71.6 | 23 | 114 | 67.7 | 182 | 42.2 | 53.7 | 93.1 | 102 | 46 | 45.5 | 60.1 | 161 | 59.5
O=C(Nc1ccccc1)c1cc([N+](=O)[O-])ccc1Cl + COc1cc(N2CCC(N3CCN(C)CC3)CC2)ccc1Nc1ncc(Cl)c(Nc2ccccc2S(=O)(=O)C(C)C)n1 [NVP-TAE684] (first compound 2 µM, partner dose 0.08 µM) | 86.5 | 37.2 | 81.2 | 81.1 | 206 | 623 | 112 | 155 | 90.3 | 41.5 | 76.7 | 79.8 | 87 | 51.6 | 56.6 | 58.9 | 112 | 34.1
CCc1ccc(CCOc2ccc(CC3SC(=O)NC3=O)cc2)nc1 (configuration not stated) [pioglitazone] + O=S(=O)(c1ccccc1)N(CC(F)(F)F)c1ccc(C(O)(C(F)(F)F)C(F)(F)F)cc1 [T0901317] (first compound 2 µM, partner dose 1.4 µM) | 94.7 | 188 | 61.2 | 119 | 132 | 21.2 | 97.4 | 93.4 | 99.1 | 120 | 79.2 | 85.8 | 93.2 | 97.2 | 59.6 | 87 | 84.3 | 26.4
COc1cc2c(Oc3ccc4[nH]c(C)cc4c3F)ncnc2cc1OCCCN1CCCC1 [cediranib] + CCCCCCCCCCCC1=C(O)C(=O)C=C(O)C1=O [Embelin] (first compound 0.4 µM, partner dose 1.2 µM) | 83.9 | 169 | 127 | 106 | 188 | 58.9 | 81.2 | 60.6 | 139 | 95.2 | 80.6 | 103 | 70.6 | 110 | 53.1 | 126 | 85.9 | 52.2
COc1ccc(-c2ccc3c(N4CCOCC4)nc(N4C[C@@H](C)O[C@@H](C)C4)nc3n2)cc1CO + O=C(O)C(=O)Nc1sc2c(c1C(=O)O)CCNC2 [TCS401] (first compound 0.02 µM, partner dose 1.66667 µM) | 79.4 | 79.8 | 199 | 151 | 67.6 | 85.1 | 81.8 | 139 | 182 | 41.5 | 157 | 58.3 | 79.9 | 57.4 | 86.3 | 83.5 | 155 | 70.2
COc1ccc2c(c1)CCC1C2CCC2(C)C(NCCCCCCN3C(=O)C=CC3=O)CCC12 (configuration not stated) + Oc1cc(-c2nc(-c3ccccc3)[nH]c2-c2ccncc2)ccc1Cl [L779450] (first compound 0.4 µM, partner dose 0.2 µM) | 108 | 98.2 | 135 | 259 | 39.9 | 30.6 | 196 | 79.9 | 181 | 143 | 89.7 | 108 | 40.5 | 238 | 112 | 119 | 108 | 67.4
CN(NC(=O)CC(=O)NN(C)C(=S)c1ccccc1)C(=S)c1ccccc1 + COc1ccc(COc2ccc(Cc3cnc(N)nc3N)cc2OC)cc1 [GW2580] (first compound 0.006 µM, partner dose 1 µM) | 136 | 136 | 364 | 2190 | 121 | 59.4 | 983 | 260 | 130 | 92.7 | 122 | 197 | 278 | 90.5 | 171 | 177 | 111 | 110

Fetched one by one from the entries so far, two records:
SMILES | cleaved PARP positive nuclei fraction (501Mel) [%] | cleaved PARP positive nuclei fraction (A101D) [%] | cleaved PARP positive nuclei fraction (A2058) [%] | cleaved PARP positive nuclei fraction (A375) [%] | cleaved PARP positive nuclei fraction (C32) [%] | cleaved PARP positive nuclei fraction (CBRC013) [%] | cleaved PARP positive nuclei fraction (CBRC014) [%] | cleaved PARP positive nuclei fraction (CBRC016) [%] | cleaved PARP positive nuclei fraction (CBRC017) [%] | cleaved PARP positive nuclei fraction (CBRC034) [%] | cleaved PARP positive nuclei fraction (COLO792) [%] | cleaved PARP positive nuclei fraction (COLO800) [%] | cleaved PARP positive nuclei fraction (COLO829) [%] | cleaved PARP positive nuclei fraction (G361) [%] | cleaved PARP positive nuclei fraction (IPC-298) [%] | cleaved PARP positive nuclei fraction (IST-MEL1) [%] | cleaved PARP positive nuclei fraction (LB2518-MEL) [%] | cleaved PARP positive nuclei fraction (LOXIMVI) [%]
COc1ccc2c(c1)CCC1C2CCC2(C)C(NCCCCCCN3C(=O)C=CC3=O)CCC12 (configuration not stated) + Oc1cc(-c2nc(-c3ccccc3)[nH]c2-c2ccncc2)ccc1Cl [L779450] (first compound 0.4 µM, partner dose 0.2 µM) | 108 | 98.2 | 135 | 259 | 39.9 | 30.6 | 196 | 79.9 | 181 | 143 | 89.7 | 108 | 40.5 | 238 | 112 | 119 | 108 | 67.4
Cn1cc(/C=C2\C(=O)Nc3cccnc32)c2ccccc21 + CCCCCCCCCCCC1=C(O)C(=O)C=C(O)C1=O [Embelin] (first compound 0.4 µM, partner dose 1.2 µM) | 70.4 | 111 | 76.9 | 126 | 126 | 415 | 108 | 31.5 | 94.9 | 104 | 41.5 | 74 | 91.7 | 225 | 93 | 293 | 74.7 | 73
